Assay results from the supplement of paper PMC7661543.
Differences between knockout arms are mostly noise.

Test system: MDA-MB-231
Assay: relative cell number vs DMSO control (72 h) (% of DMSO); higher = less growth inhibition (more cells)
Description: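 QMAP-Seq: a pool of 5 breast cancer cell lines (ZR-75-1, SKBR3, HCC-38, MDA-MB-231, BT-20), each carrying 12 doxycycline-inducible Cas9 sgRNA perturbations (11 knockouts plus non-targeting sgNT), was treated with compounds for 72 h at four 10-fold doses (10 nM-10 uM or 1 nM-1 uM range). Barcodes were amplified and sequenced, and cell number was interpolated from 293T spike-in standard curves. The result is expressed as % of the median of DMSO wells. Two biological replicates.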

CC(C)n1c(/C=C/C(O)CC(O)CC(=O)O)c(-c2ccc(F)cc2)c2ccccc21 (configuration not stated) [Fluvastatin]
Conditions | relative cell number
sgRNA knockout: sgATF3, 10 nM | 84.3
sgRNA knockout: sgATF3, 100 nM | 94.9
sgRNA knockout: sgATF3, 1000 nM | 32.3
sgRNA knockout: sgATF3, 10000 nM | 15.7
sgRNA knockout: sgATF4, 10 nM | 85.5
sgRNA knockout: sgATF4, 100 nM | 114
sgRNA knockout: sgATF4, 1000 nM | 35
sgRNA knockout: sgATF4, 10000 nM | 27.2
sgRNA knockout: sgATF6, 10 nM | 67.9
sgRNA knockout: sgATF6, 100 nM | 87.4
sgRNA knockout: sgATF6, 1000 nM | 35.7
sgRNA knockout: sgATF6, 10000 nM | 17.1
sgRNA knockout: sgATG7, 10 nM | 98.6
sgRNA knockout: sgATG7, 100 nM | 98.9
sgRNA knockout: sgATG7, 1000 nM | 30.8
sgRNA knockout: sgATG7, 10000 nM | 13.8
sgRNA knockout: sgERN1, 10 nM | 84
sgRNA knockout: sgERN1, 100 nM | 95.8
sgRNA knockout: sgERN1, 1000 nM | 39.3
sgRNA knockout: sgERN1, 10000 nM | 13
sgRNA knockout: sgHSF1, 10 nM | 60
sgRNA knockout: sgHSF1, 100 nM | 67.6
sgRNA knockout: sgHSF1, 1000 nM | 33.9
sgRNA knockout: sgHSF1, 10000 nM | 18.9
sgRNA knockout: sgHSF2, 10 nM | 97.6
sgRNA knockout: sgHSF2, 100 nM | 105
sgRNA knockout: sgHSF2, 1000 nM | 32.4
sgRNA knockout: sgHSF2, 10000 nM | 17.1
sgRNA knockout: sgKEAP1, 10 nM | 100
sgRNA knockout: sgKEAP1, 100 nM | 94.5
sgRNA knockout: sgKEAP1, 1000 nM | 46.5
sgRNA knockout: sgKEAP1, 10000 nM | 20.6
sgRNA knockout: sgNFE2L2, 10 nM | 82.3
sgRNA knockout: sgNFE2L2, 100 nM | 106
sgRNA knockout: sgNFE2L2, 1000 nM | 33.1
sgRNA knockout: sgNFE2L2, 10000 nM | 17.9
sgRNA knockout: sgSLC35F2, 10 nM | 87.2
sgRNA knockout: sgSLC35F2, 100 nM | 93.9
sgRNA knockout: sgSLC35F2, 1000 nM | 32.8
sgRNA knockout: sgSLC35F2, 10000 nM | 16.8
sgRNA knockout: sgXBP1, 10 nM | 116
sgRNA knockout: sgXBP1, 100 nM | 82.6
sgRNA knockout: sgXBP1, 1000 nM | 26.3
sgRNA knockout: sgXBP1, 10000 nM | 21.6

C[C@]12CC[C@@H]3c4ccc(O)cc4C[C@@H](CCCCCCCCC[S+]([O-])CCCC(F)(F)C(F)(F)F)[C@H]3[C@@H]1CC[C@@H]2O (some centres not stated) [Fulvestrant]
Conditions | relative cell number
sgRNA knockout: sgATF3, 10 nM | 89.4
sgRNA knockout: sgATF3, 100 nM | 105
sgRNA knockout: sgATF3, 1000 nM | 104
sgRNA knockout: sgATF3, 10000 nM | 86.2
sgRNA knockout: sgATF4, 10 nM | 122
sgRNA knockout: sgATF4, 100 nM | 77
sgRNA knockout: sgATF4, 1000 nM | 74.5
sgRNA knockout: sgATF4, 10000 nM | 93.1
sgRNA knockout: sgATF6, 10 nM | 81.9
sgRNA knockout: sgATF6, 100 nM | 73
sgRNA knockout: sgATF6, 1000 nM | 109
sgRNA knockout: sgATF6, 10000 nM | 82.8
sgRNA knockout: sgATG7, 10 nM | 93.3
sgRNA knockout: sgATG7, 100 nM | 77.8
sgRNA knockout: sgATG7, 1000 nM | 93.3
sgRNA knockout: sgATG7, 10000 nM | 95.2
sgRNA knockout: sgERN1, 10 nM | 107
sgRNA knockout: sgERN1, 100 nM | 90.9
sgRNA knockout: sgERN1, 1000 nM | 129
sgRNA knockout: sgERN1, 10000 nM | 84.3
sgRNA knockout: sgHSF1, 10 nM | 97.6
sgRNA knockout: sgHSF1, 100 nM | 83.2
sgRNA knockout: sgHSF1, 1000 nM | 112
sgRNA knockout: sgHSF1, 10000 nM | 88.7
sgRNA knockout: sgHSF2, 10 nM | 89.9
sgRNA knockout: sgHSF2, 100 nM | 117
sgRNA knockout: sgHSF2, 1000 nM | 100
sgRNA knockout: sgHSF2, 10000 nM | 78
sgRNA knockout: sgKEAP1, 10 nM | 89.5
sgRNA knockout: sgKEAP1, 100 nM | 91.9
sgRNA knockout: sgKEAP1, 1000 nM | 109
sgRNA knockout: sgKEAP1, 10000 nM | 94.1
sgRNA knockout: sgNFE2L2, 10 nM | 116
sgRNA knockout: sgNFE2L2, 100 nM | 75.6
sgRNA knockout: sgNFE2L2, 1000 nM | 112.29
sgRNA knockout: sgNFE2L2, 10000 nM | 80.8
sgRNA knockout: sgSLC35F2, 10 nM | 90.7
sgRNA knockout: sgSLC35F2, 100 nM | 86.6
sgRNA knockout: sgSLC35F2, 1000 nM | 105
sgRNA knockout: sgSLC35F2, 10000 nM | 85.666
sgRNA knockout: sgXBP1, 10 nM | 92.1
sgRNA knockout: sgXBP1, 100 nM | 87.2
sgRNA knockout: sgXBP1, 1000 nM | 102
sgRNA knockout: sgXBP1, 10000 nM | 78.6

OCCn1cc(-c2ccc3c(c2)CC/C3=N\O)c(-c2ccncc2)n1 [GDC0879]
Conditions | relative cell number
sgRNA knockout: sgATF3, 10 nM | 94.4
sgRNA knockout: sgATF3, 100 nM | 100
sgRNA knockout: sgATF3, 1000 nM | 100
sgRNA knockout: sgATF3, 10000 nM | 74.5
sgRNA knockout: sgATF4, 10 nM | 104
sgRNA knockout: sgATF4, 100 nM | 98.8
sgRNA knockout: sgATF4, 1000 nM | 136
sgRNA knockout: sgATF4, 10000 nM | 112
sgRNA knockout: sgATF6, 10 nM | 98.047
sgRNA knockout: sgATF6, 100 nM | 100
sgRNA knockout: sgATF6, 1000 nM | 107
sgRNA knockout: sgATF6, 10000 nM | 121
sgRNA knockout: sgATG7, 10 nM | 106
sgRNA knockout: sgATG7, 100 nM | 98.6
sgRNA knockout: sgATG7, 1000 nM | 93.9
sgRNA knockout: sgATG7, 10000 nM | 89.6
sgRNA knockout: sgERN1, 10 nM | 117
sgRNA knockout: sgERN1, 100 nM | 112
sgRNA knockout: sgERN1, 1000 nM | 91.6
sgRNA knockout: sgERN1, 10000 nM | 88.2
sgRNA knockout: sgHSF1, 10 nM | 99.2
sgRNA knockout: sgHSF1, 100 nM | 105
sgRNA knockout: sgHSF1, 1000 nM | 100
sgRNA knockout: sgHSF1, 10000 nM | 106
sgRNA knockout: sgHSF2, 10 nM | 115
sgRNA knockout: sgHSF2, 100 nM | 103
sgRNA knockout: sgHSF2, 1000 nM | 104
sgRNA knockout: sgHSF2, 10000 nM | 93.9
sgRNA knockout: sgKEAP1, 10 nM | 98.3
sgRNA knockout: sgKEAP1, 100 nM | 110
sgRNA knockout: sgKEAP1, 1000 nM | 102
sgRNA knockout: sgKEAP1, 10000 nM | 85.6
sgRNA knockout: sgNFE2L2, 10 nM | 87.7
sgRNA knockout: sgNFE2L2, 100 nM | 101
sgRNA knockout: sgNFE2L2, 1000 nM | 91
sgRNA knockout: sgNFE2L2, 10000 nM | 72.2
sgRNA knockout: sgSLC35F2, 10 nM | 122
sgRNA knockout: sgSLC35F2, 100 nM | 109
sgRNA knockout: sgSLC35F2, 1000 nM | 108
sgRNA knockout: sgSLC35F2, 10000 nM | 84.8
sgRNA knockout: sgXBP1, 10 nM | 95.8
sgRNA knockout: sgXBP1, 100 nM | 102.7
sgRNA knockout: sgXBP1, 1000 nM | 102
sgRNA knockout: sgXBP1, 10000 nM | 85.2
